The list does not hold the whole screen: it is rich in T/C values a quarter to a half above the control, in often repeated tests (any T/C) and in doses without a T/C. Further doses and runs are listed elsewhere. T/C: endpoint of the treated group in % of that of the vehicle group. Some entries give survivors of the animals treated and no T/C: the source holds a T/C of zero for them, seemingly a mark for toxic or unscored doses. For part of these data: Counts of survivors are from the toxicity check (mostly the fifth day) where no day follows; animals may have died later. Schedules are NCI's codes, taken here to give the interval after Q, in days (D) or hours (H), and the number of doses after X. Some schedules carry Z or #; the key to these is not given. Some entries hold several experiments; the values are given in rising order. Where survival is the endpoint, the PubChem record calls one and a half times the control and up active, and a quarter to a half above the control has no call in these data; cut-offs in other NCI protocols can differ. Additions like (4×) stand for listed records that agree. Some T/C values are followed by the survivors on the day toxicity was checked, most often the fifth; without a count, all were alive then.
Key:
[1] = tested on: BDF1 mice, L1210 leukemia sc; test: NCI In Vivo Anticancer Drug Screen. Data for tumor model L1210 Leukemia (subcutaneous) in B6D2F1 (BDF1) mice; conditions: T/C endpoint: median survival time, higher T/C = longer survival
Outline: (§1)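 Mice carrying transplanted tumors received test compounds, and survival or tumor size was measured. Values are the treated-group measurement (T) divided by that of the vehicle-treated control group (C).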

[2] = tested on: BDF1 mice, L1210 leukemia sc, survival T/C; test: as above; conditions: T/C endpoint: median survival time, higher T/C = longer survival
Outline: as §1

[3] = dose: 39.0 mg/kg/injection, schedule: Q01DX Z (sc), vehicle: methylcellulose (MC)
[4] = dose: 39.0 mg/kg/injection, schedule: Q01DX Z (sc), vehicle: other, run until all animals had died
[5] = dose: 65.0 mg/kg/injection, schedule: Q01DX Z (sc), vehicle: methylcellulose (MC)
[6] = dose: 65.0 mg/kg/injection, schedule: Q01DX Z (sc), vehicle: other, run until all animals had died
[7] = dose: 108.0 mg/kg/injection, schedule: Q01DX Z (sc), vehicle: methylcellulose (MC)
[8] = dose: 108.0 mg/kg/injection, schedule: Q01DX Z (sc), vehicle: other, run until all animals had died
[9] = dose: 180.0 mg/kg/injection, schedule: Q01DX Z (oral), vehicle: methylcellulose (MC)
[10] = dose: 180.0 mg/kg/injection, schedule: Q01DX Z (sc), vehicle: other, run until all animals had died
[11] = dose: 300.0 mg/kg/injection, schedule: Q01DX001 (sc), vehicle: other
[12] = dose: 300.0 mg/kg/injection, schedule: Q01DX Z (sc), vehicle: other
[13] = dose: 500.0 mg/kg/injection, schedule: Q01DX Z (oral), vehicle: methylcellulose (MC)
[14] = dose: 8.4 mg/kg/injection, schedule: Q01DX Z (sc), vehicle: methylcellulose (MC)
[15] = dose: 14.0 mg/kg/injection, schedule: Q01DX Z (sc), vehicle: methylcellulose (MC)

S=c1nc[nH]c2nc[nH]c12
T/C ([1]; dose: 8.4 mg/kg/injection, schedule: Q## X Z (sc), vehicle: other): 147 % of control | T/C ([1]; dose: 10.0 mg/kg/injection, schedule: Q01DX009 (ip), vehicle: other): 137 % of control | T/C ([1]; dose: 14.0 mg/kg/injection, schedule: Q## X Z (sc), vehicle: other): 147 % of control | T/C ([1]; dose: 20.0 mg/kg/injection, schedule: Q01DX009 (ip), vehicle: other): 137 % of control | T/C ([1]; dose: 23.0 mg/kg/injection, schedule: Q## X Z (sc), vehicle: other): 147 % of control (2×) | T/C ([1]; dose: 23.3 mg/kg/injection, schedule: Q01DX Z (sc), vehicle: methylcellulose (MC)): 145 % of control | T/C ([1]; dose: 25.0 mg/kg/injection, schedule: Q01DX012 (ip), vehicle: other): 133 % of control | T/C ([1]; dose: 28.0 mg/kg/injection, schedule: Q01DX Z (sc), vehicle: methylcellulose (MC)): 135 % of control | T/C ([1]; dose: 38.9 mg/kg/injection, schedule: Q01DX Z (sc), vehicle: methylcellulose (MC)): 145 % of control | T/C [1, 3]: 136 % of control [7 of 10 alive] | T/C ([1]; dose: 39.0 mg/kg/injection, schedule: Q01DX Z (sc), vehicle: other, evaluated on day 40): 130 % of control | T/C [1, 4]: 147 % of control | T/C ([1]; dose: 39.0 mg/kg/injection, schedule: Q## X Z (sc), vehicle: other): 147 % of control | T/C ([1]; dose: 40.0 mg/kg/injection, schedule: Q01DX009 (sc), vehicle: other): 143 % of control | T/C ([1]; dose: 46.8 mg/kg/injection, schedule: Q01DX Z (sc), vehicle: other): 129 % of control | T/C ([1]; dose: 60.0 mg/kg/injection, schedule: Q01DX009 (ip), vehicle: saline, evaluated on day 5): 147 % of control | T/C ([1]; dose: 60.0 mg/kg/injection, schedule: Q01DX009 (ip), vehicle: saline, evaluated on day 8): 147 % of control | T/C ([1]; dose: 60.0 mg/kg/injection, schedule: Q01DX009 (ip), vehicle: saline, evaluated on day 30): 144 % of control | T/C ([1]; dose: 64.8 mg/kg/injection, schedule: Q01DX Z (sc), vehicle: methylcellulose (MC)): 140 and 145 % of control | T/C [1, 5]: 145 % of control [7 of 10 alive] | T/C [1, 6]: 136 % of control | T/C ([1]; dose: 65.0 mg/kg/injection, schedule: Q## X Z (sc), vehicle: other): 136 % of control | T/C ([1]; dose: 65.0 mg/kg/injection, schedule: Q#A X Z (sc), vehicle: other): 147 % of control | T/C ([1]; dose: 100.0 mg/kg/injection, schedule: Q01DX012 (ip), vehicle: other): 138 % of control | T/C [1, 7]: 127, 130, 140, 145 % of control | T/C [1, 8]: 147 % of control | T/C ([1]; dose: 108.0 mg/kg/injection, schedule: Q## X Z (sc), vehicle: other): 126 % of control | T/C ([1]; dose: 108.0 mg/kg/injection, schedule: Q#A X Z (sc), vehicle: other): 147 % of control | T/C ([1]; dose: 130.0 mg/kg/injection, schedule: Q01DX Z (oral), vehicle: methylcellulose (MC)): 136 % of control | T/C ([1]; dose: 130.0 mg/kg/injection, schedule: Q01DX Z (sc), vehicle: methylcellulose (MC)): 140 % of control | T/C ([1]; dose: 180.0 mg/kg/injection, schedule: Q01DX001 (sc), vehicle: other): 126 % of control | T/C [1, 9]: 140 % of control [9 of 10 alive] | T/C ([1]; dose: 180.0 mg/kg/injection, schedule: Q01DX Z (oral), vehicle: other): 140 % of control | T/C ([1]; dose: 180.0 mg/kg/injection, schedule: Q01DX Z (sc), vehicle: methylcellulose (MC)): 131 % of control | T/C [1, 10]: 142 and 144 % of control | T/C ([1]; dose: 180.0 mg/kg/injection, schedule: Q02DX Z (sc), vehicle: other): 147 % of control | T/C ([1]; dose: 180.0 mg/kg/injection, schedule: Q07DX Z (sc), vehicle: other): 126 % of control | T/C ([1]; dose: 180.0 mg/kg/injection, schedule: Q## X Z (sc), vehicle: other): 126 and 147 % of control | T/C ([1]; dose: 180.0 mg/kg/injection, schedule: Q#A X Z (sc), vehicle: other): 147 % of control | T/C ([1]; dose: 216.0 mg/kg/injection, schedule: Q01DX Z (sc), vehicle: methylcellulose (MC)): 130 % of control | T/C ([1]; dose: 216.0 mg/kg/injection, schedule: Q01DX Z (sc), vehicle: other): 133 % of control [9 of 10 alive] | T/C [1, 11]: 126 % of control [6 of 8 alive] | T/C ([1]; dose: 300.0 mg/kg/injection, schedule: Q01DX Z (oral), vehicle: other): 135 % of control | T/C ([1]; dose: 300.0 mg/kg/injection, schedule: Q01DX Z (sc), vehicle: methylcellulose (MC)): 127 % of control | T/C [1, 12]: 127, 130 [8 of 10 alive], 140 % of control | T/C [1, 13]: 140 % of control | T/C ([1]; dose: 500.0 mg/kg/injection, schedule: Q02DX Z (sc), vehicle: other): 127 % of control [8 of 10 alive] | survivor count ([2]; dose: 5.0 mg/kg/injection, schedule: Q01DX Z (sc), vehicle: methylcellulose (MC)): 4 of 10 | survivor count ([2]; dose: 8.4 mg/kg/injection, schedule: Q01DX Z (oral), vehicle: methylcellulose (MC)): 4 of 10 | T/C [2, 14]: 100 [8 of 10 alive] and 100 % of control [9 of 10 alive] | survivor count [2, 14]: 1 of 10 and 3 of 10 | T/C [2, 15]: 109 % of control [9 of 10 alive] | survivor count [2, 15]: 0 of 10 and 6 of 10 | survivor count ([2]; dose: 23.0 mg/kg/injection, schedule: Q01DX Z (oral), vehicle: methylcellulose (MC)): 0 of 10 | survivor count ([2]; dose: 23.0 mg/kg/injection, schedule: Q01DX Z (sc), vehicle: methylcellulose (MC)): 3 of 10 and 6 of 10 | T/C ([2]; dose: 23.0 mg/kg/injection, schedule: Q01DX Z (sc), vehicle: other, evaluated on day 40): 120 % of control | T/C ([2]; dose: 23.0 mg/kg/injection, schedule: Q01DX Z (sc), vehicle: other, evaluated on day 60): 100 % of control | T/C ([2]; dose: 23.0 mg/kg/injection, schedule: Q01DX Z (sc), vehicle: other, run until all animals had died): 95, 100 (2×), 105 % of control | survivor count ([2]; dose: 39.0 mg/kg/injection, schedule: Q01DX Z (oral), vehicle: methylcellulose (MC)): 0 of 10 and 5 of 10 | survivor count [2, 3]: 2 of 10 and 6 of 10 | T/C ([2]; dose: 39.0 mg/kg/injection, schedule: Q01DX Z (sc), vehicle: other, evaluated on day 60): 104 % of control | T/C [2, 4]: 94, 105 [8 of 10 alive], 110, 155 % of control | survivor count ([2]; dose: 65.0 mg/kg/injection, schedule: Q01DX Z (oral), vehicle: methylcellulose (MC)): 1 of 10 | survivor count [2, 5]: 2 of 10 | T/C ([2]; dose: 65.0 mg/kg/injection, schedule: Q01DX Z (sc), vehicle: other, evaluated on day 40): 165 % of control | T/C ([2]; dose: 65.0 mg/kg/injection, schedule: Q01DX Z (sc), vehicle: other, evaluated on day 60): 154 % of control | T/C [2, 6]: 120, 150, 166, 170, 173 % of control | survivor count ([2]; dose: 108.0 mg/kg/injection, schedule: Q01DX Z (oral), vehicle: methylcellulose (MC)): 1 of 10 | T/C [2, 7]: 155 % of control [7 of 10 alive] | T/C ([2]; dose: 108.0 mg/kg/injection, schedule: Q01DX Z (sc), vehicle: other, evaluated on day 40): 155 % of control | T/C ([2]; dose: 108.0 mg/kg/injection, schedule: Q01DX Z (sc), vehicle: other, evaluated on day 60): 154 % of control | T/C [2, 8]: 90 [9 of 10 alive], 150 (2×), 159, 168, 177, 180 % of control | survivor count [2, 9]: 3 of 10 | T/C ([2]; dose: 180.0 mg/kg/injection, schedule: Q01DX Z (sc), vehicle: other, evaluated on day 40): 110 % of control | survivor count ([2]; dose: 180.0 mg/kg/injection, schedule: Q01DX Z (sc), vehicle: other): 2 of 10 | T/C [2, 10]: 150 (2×), 154, 155, 157 % of control | survivor count ([2]; dose: 240.0 mg/kg/injection, schedule: Q01DX009 (ip), vehicle: saline): 5 of 10 | survivor count [2, 11]: 5 of 10 | survivor count ([2]; dose: 300.0 mg/kg/injection, schedule: Q01DX Z (oral), vehicle: methylcellulose (MC)): 5 of 10 | survivor count [2, 12]: 4 of 10 and 6 of 10 | survivor count ([2]; dose: 300.0 mg/kg/injection, schedule: Q02DX Z (sc), vehicle: other): 6 of 10 | survivor count ([2]; dose: 300.0 mg/kg/injection, schedule: Q07DX Z (sc), vehicle: other): 5 of 8 | survivor count ([2]; dose: 300.0 mg/kg/injection, schedule: Q## X Z (sc), vehicle: other): 4 of 10 | survivor count ([2]; dose: 500.0 mg/kg/injection, schedule: Q01DX001 (sc), vehicle: other): 2 of 10 | survivor count [2, 13]: 5 of 10 | survivor count ([2]; dose: 500.0 mg/kg/injection, schedule: Q07DX Z (sc), vehicle: other): 1 of 10 | survivor count ([2]; dose: 500.0 mg/kg/injection, schedule: Q## X Z (sc), vehicle: other): 4 of 10

— PubChem BioAssay AID250 (DTP/NCI, 2004)
